No constants are given. Whether binding was seen depends on the method and setting. Binding seen in cells or lysates may run through a third protein. These calls come from enrichment with a bait or labelling near it, and not all partners need be listed.
B1: SMU_723 (protein, UniProt Q8DV01 1-893)
chain: MFKKQKRDSFYVQDEKTVLSGLESSKKGLTSTQAKQRLADYGYNELEEDEKRTILAKFIDQFKDLMIIILLVAAALSVITEGMGGLTDAIIILVVVVLNAAFGVYQEGQAEAAIEALKSMSSPHARVRRDGHVTEIDSKELVPGDVVLLEAGDVVPADMRLLEAASLKIEEAALTGESVPVEKSVTVAIASDAGIGDRLNMAYQNSNVTYGRGMGVVTNTGMYTEVGHIAGMLANADETDTPLKQSLDNLSKVLTYVIIIIAIITCLVGIFVRHEEPLEGLMVAVALAVAAIPEGLPAIVTVVLSLGTKTLAKRQSIVRKLPAVETLGSTEIIASDKTGTLTMNQMTVEKVYYNGRLVDANDDIDVNNMALRVMNFANDSKVDANGKLIGDPTETALVQYGFDHNFDIREVLKAELRVAELPFDSDRKLMSTIHKLDGEKYLIAVKGAPDQLLKRITQIEIDGSIRPITEDDKKAILDMNKSLAKQALRVLMIAYKYESEIPKLETAVVENDLIFAGLVGMIDPERPEAAEAVHVAKEAGIRPIMITGDHQDTAEAIAKRLGIIDDDGIDHVFTGAELNELSDEEFQKVFKQYSVYARVSPEHKVRIVKAWQNDGKIVAMTGDGVNDAPSLKTADIGIGMGITGTEVSKGASDMVLADDNFATIIVAVEEGRKVFSNIQKSIQYLLSANMAEVFTIFFATLFGWDVLQPVHLLWINLVTDTLPAIALGVEPAEPGVMTHKPRGRKSSFFSGGVMGAIIYQGILQTLLVLGVYGWAVFFPEHATRTEIHADALTMAFATLGLIQLVHAYNVKSVYQSIFKVGFFKNKTFNWALPTALIIMLATIVIPGFNRFFHVSHLSVTQWCVVVGGSLAMFVIVEIVKAIQRVLGQDQKAI
B2: GlmM (enzyme, UniProt Q8DTC6 1-449)
chain: MGKYFGTDGVRGEANVELTPELAFKLGRFGGYVLSQHEPDRPRVFVARDTRISGELLESALVAGLLSVGIEVYKLGVLATPGVSYLVRTEQASAGVMISASHNPALDNGIKFFGGDGFKLADEQEAEIEALLDAKEDDLPRPSAQGLGMVVDYPEGLRKYEKFLVSTGSDLEGMKIAIDAANGAASYSARQVFLDLNADITVIGEEPDGLNINDGVGSTHPEQLQNLVKGSDFVIGLAFDGDSDRLIAVDENGEIVDGDKIMYIIGKYLSEKGRLSKNTIVTTVMSNLGFHKALDRENINKKITAVGDRYVVEEMRRSGYNLGGEQSGHVIIMDYNTTGDGQLTAIQLTKVMKETGKTLSELANEVTIYPQKLVNIYVKNDMKNKAMEVPMIAQIIEKMEAEMAGNGRILVRPSGTEPLLRVMAEAPSTEEVNYYVDTIAKVVKTEIGI
B3: GuaB (enzyme, UniProt Q8DRR2 1-493)
chain: MSNWDTKFLKKGYTFDDVLLIPAESHVLPNEVSMQTKLAKNLTLNIPIITAAMDTVTDSKMAIAIARAGGLGVVHKNMSIKEQAEEVRKVKRSENGVIIDPFFLTPEHKVSEAEELMQRYRISGVPVVETLDNRKLIGIITNRDMRFISDYETPISEHMTSEKLVTAPVGTDLETAERILHEHRIEKLPLIDEKGRLSGLITIKDIEKVIEFPNAAKDEFGRLLVAGAVGVTSDTFERAEALFEAGADAIVIDTAHGHSAGVLRKIAEIRAHFPDRTLIAGNIATAEGARALYEAGVDVVKVGIGPGSICTTRVVAGVGVPQITAIYDAASIAREYGRTIIADGGIKYSGDIVKALAAGGNAVMLGSMFAGTDEAPGETEIFQGRKFKTYRGMGSIAAMKKGSSDRYFQGSVNEANKLVPEGIEGRVAYKGAAADIVFQMLGGIRSGMGYVGAANLKELHENAQFIEMSGAGLIESHPHDVQITNEAPNYSVQ
B4: LivG (protein, UniProt Q8DSU3 1-254)
chain: MALLDVKNLTKNFGGLTAVGDVTLELNEGELVGLIGPNGAGKTTLFNLLTGVYEPSEGSVELDGTLLNGKTPYKIASLGLSRTFQNIRLFKNMTVIENVLVGMENTRNPHLFSSFLRLPSFYSNETDLQEKAIELLKIFNLDDKADTLAKNLPYGQQRRLEIVRALATKPKILFLDEPAAGMNPQETAELTELIRQIKEEFSITIMLIEHDMSLVMDVTERIYVLEYGRLIAQGTPEEIKHNKRVIEAYLGGEA
B5: PttB (protein, UniProt I6L905 1-655)
chain: MGKFEKDAKVLLDAIGGKENVSAVTHCATRMRFVLNDESKADVKTIEAIPAVKGTFTNAGQFQIIIGNDVPLFYNDFTAVSGIEGVSKETAKSAAKSHQNPIQRVMTLLAEIFTPIIPAIIVGGLILGFRNVIDQVQWGFLDGQTIAQHSQFWSGISSFLWLPGEAIFQFLPVGIVWSVSRKMGTSQILGIVLGICLVSPQLLNAYNVASTPAAEIAKKWVWDFGFFTVRRIGYQGQVIPALLAGLSLSYLEIFWRKKIPEVVSMIFVPFLSLIPALILAHTVLGPIGWTIGQWISTIVYAGLTGPVKWLFGAIFGALYAPFVITGLHHMTNAIDTQLVADTGGTGLWPMIALSNIAQGSAVFAYYLMNRHEEREAQVSLPATISAYLGVTEPALFGVNIKYVYPLVAGMIGSSIAGFLSVTFNVTANAIGIGGLPGILSIKVKYMLPFFIIMLVAIAVPMVLTVFFRRINFLTKSEDEAHQEKTETAEISASEKTNEPAVGTTFEIKSPLKGQVKPLSEAVDPVFAQGVMGQGVLIDPSEGLLTSPVNGVVSVLFPTKHALGLVTDQGLELLIHIGMDTVNLEGKGFETYVKQGDTIKVGDKLIRFDIDAIHQAGYTTETPVIVTNQNDYQPDVVGSLPREIERGEVLLTASKI
B6: Ftf (enzyme, UniProt P11701 37-795)
chain: DEANSTQVSSELAERSQVQENTTASSSAAENQDKTEVKETPSTNPAAATVENTDQTTKVITDNAAVESKASKTKDQAATVTKTSASTPEVGQTNEKAKATKEADITTPKNTIDEYGLTEQARKIATEAGINLSSLTQKQVEALNKVKLTSDAQTGHQMTYQEFDKIAQTLIAQDERYAIPYFNAKAIKNMKAATTRDAQTGQIADLDVWDSWPVQDAKTGEVINWNGYQLVVAMMGIPNTNDNHIYLLYNKYGDNNFDHWKNAGSIFGYNETPLTQEWSGSATVNEDGSLQLFYTKVDTSDKNSNNQRLATATVNLGFDDQDVRILSVENDKVLTPEGGDGYHYQSYQQWRSTFTGADNIAMRDPHVIEDENGDRYLVFEASTGTENYQGEDQIYNFTNYGGSSAYNVKSLFRFLDDQDMYNRASWANAAIGILKLKGDKKTPEVDQFYTPLLSSTMVSDELERPNVVKLGDKYYLFTASRLNHGSNNDAWNKANEVVGDNVVMLGYVSDQLTNGYKPLNNSGVVLTASVPADWRTATYSYYAVPVAGSSDTLLMTAYMTNRNEVAGKGKNSTWAPSFLIQVLPDGTTKVLAEMTQQGDWIWDESSRTTDTVGTLDTAYLPGENDGYIDWNVIGGYGLKPHTPGQYQPTVPSTPIHTDDIISFEVSFDGHLVIKPVKVNNDSAGRIDQSRNSGGSLNVAFNVYAGGNISVKPSQKSINNTKETKKAHHVSTEKKQKKGNSFFAALLALFSAFCVSIGFK
B7: GapC (enzyme, UniProt Q8DVV3 1-337)
chain: MVVKVGINGFGRIGRLAFRRIQNVEGVEVTRINDLTDPNMLAHLLKYDSTQGRFDGNVEVKEGGFEVNGKFVKVSAERDPEQIDWAADGVEIVLEATGFFASKAAAEKHLHANGGAKKVVITAPGGNDIKTIVFNTNHDVLDGTETVISGASCTTNCLAPMAKALHDNFSIKEGLMTTIHAYTGDQMVLDGPHRKGDLRRARAAAANIVPNSTGAAKAIGLVIPELNGKLDGAAQRVPVPTGSVTELVAVLDKKVTVDEVNAAMKAAANESYGYTEDPIVSSDIVGMSFGSLFDATQTKVLDVDGKQLVKVVSWYDNEMSYTSQLVRTLEYFAKIAK
B8: GroEL (protein, UniProt Q8CWW6 1-542)
chain: MAKDIKFSADARSSMVRGVDILADTVKVTLGPKGRNVVLEKSFGSPLITNDGVTIAKEIELEDHFENMGAKLVSEVASKTNDIAGDGTTTATVLTQAIVREGLKNVTAGANPIGIRRGIETAVATAVDELKAIAQPVSGKEAIAQVAAVSSRSEKVGEYVSEAMEKVGNDGVITIEESRGMETELDVVEGMQFDRGYLSQYMVTDNEKMVADLENPYLLITDKKISNIQDVLPLLEEVLKTNRPLLIIADDVDGEALPTLVLNKIRGTFNVVAVKAPGFGDRRKAMLEDIAVLTGGTVITEDLGLELKDTTIDALGQAARVTVDKDSTVIVEGSGGKEAVANRVNLIKSQIETATSDFDREKLQERLAKLSGGVAVIKVGAATETELKEMKLRIEDALNATRAAVEEGIVAGGGTALINVIEKVAALDLTDDAATGRNLVLRALEEPVRQIAKNAGYEGSVIIDKLKNSSAGTGFNAANGEWVDMIDAGIIDPVKVTRSALQNAASVASLILTTEAVVADHPAPEAPAAAPAMDPSMMGGMM
B9: FtsZ (protein, UniProt Q8DVD9 1-434)
chain: MAFSFDAASVQGAVIKVIGVGGGGGNAINRMIDEGVAGVEFIAANTDIQALSSSKAETVIQLGPKLTRGLGAGGQPEIGRKAAEESEEALTEALTGADMVFITAGMGGGSGTGAAPVIARIAKGLGSLTVAVVTRPFGFEGSKRGNYAIEGINELRDEVDTLLIISNNNLLEIVDKKTPLLEALSEADNVLRQGVQGITDLITSPGLINLDFADVKTVMASKGNALMGIGIGTGEERVVEAARKAIYSPLLETTIDGAEDVIVNVTGGLDMTLTEAEEASEIVNQAAGHGVNIWLGTSIDDSMKDEIRVTVVATGVRPDKADQVSGIRRQASSYTQPRAQQQAPSSNSAQPNFERRQNFDFDLNESPEMPAAEPQQTQSSSEPQQSAFGDWNLRRENIARPTEGEIDSQLKMSSFSADSDDDDELETPPFFKNR
B10: LivF (protein, UniProt Q8DSU4 1-236)
chain: MAMLKVENLSVHYGVIQAVKDVSFDVNEGEVVSLIGANGAGKTSILRTISGLVRPSSGEINFLGNDIQKAATRKIVASGLSQVPEGRHVFPGLTVLENLEMGAFLSNNREENLARLKRVFERFPRLEERKNQDAATLSGGEQQMLAMGRALMSQPKLLLLDEPSMGLAPIFIQEIFDIIQDIQKQGTTVLLIEQNAKKALSIADRGYVLETGKIVLSGTGKELLASDEVQKAYLGG

target: DacA-FLAG (diadenylate cyclase DacA with C-terminal FLAG tag) (Streptococcus mutans); experiment: affinity purification with mass spectrometry

Binder	binding
B1	binds
B2	binds

target: DacA-FLAG (diadenylate cyclase DacA with C-terminal FLAG tag) (Streptococcus mutans); experiment: affinity purification with mass spectrometry; remark: another data set of the same source

Binder	binding
B3	binds
B4	binds
B5	binds
B6	binds
B1	binds
B7	binds
B8	binds
B9	binds
B10	binds

target: DacA-FLAG (diadenylate cyclase DacA with C-terminal FLAG tag) (Streptococcus mutans); experiment: affinity purification with mass spectrometry; remark: another data set of the same source

Binder	binding
B5	binds

Reference: article doi:10.64898/2025.12.11.693769
